The results in this text go back to publication PMC10906075.

For at least one entry, the source does not settle the construct or the ends of the probe. The direction of at least one scale is not stated here.

The target of this series is Dynorphin A (Dyn) (UniProt P01213). Nature of the series: OWLS. The conditions noted are these: 1x PBS, almost full unbinding on rinse; thiol for surface coupling (end not stated); OWLS: 1x PBS; nanopore: PBS (~150 mM salt), 0.5-1.5 V; folded or branched DNA.

Regarding “CGACGAGGCTGGATGCATTCGCCGGATGTTCGATGTCG [phenylalanine aptamer]”, the binding signal (ng/cm2 adsorbed mass) came out at 52.
